Reference: publication PMC12447747
No constants are given. Whether binding was seen depends on the method and setting. Binding seen in cells or lysates may run through a third protein. Some binding calls cover weakened binding; strength is not graded here.

The chains behind the UniProt entries cited, without tags or fusion partners.
UniProt Q99081: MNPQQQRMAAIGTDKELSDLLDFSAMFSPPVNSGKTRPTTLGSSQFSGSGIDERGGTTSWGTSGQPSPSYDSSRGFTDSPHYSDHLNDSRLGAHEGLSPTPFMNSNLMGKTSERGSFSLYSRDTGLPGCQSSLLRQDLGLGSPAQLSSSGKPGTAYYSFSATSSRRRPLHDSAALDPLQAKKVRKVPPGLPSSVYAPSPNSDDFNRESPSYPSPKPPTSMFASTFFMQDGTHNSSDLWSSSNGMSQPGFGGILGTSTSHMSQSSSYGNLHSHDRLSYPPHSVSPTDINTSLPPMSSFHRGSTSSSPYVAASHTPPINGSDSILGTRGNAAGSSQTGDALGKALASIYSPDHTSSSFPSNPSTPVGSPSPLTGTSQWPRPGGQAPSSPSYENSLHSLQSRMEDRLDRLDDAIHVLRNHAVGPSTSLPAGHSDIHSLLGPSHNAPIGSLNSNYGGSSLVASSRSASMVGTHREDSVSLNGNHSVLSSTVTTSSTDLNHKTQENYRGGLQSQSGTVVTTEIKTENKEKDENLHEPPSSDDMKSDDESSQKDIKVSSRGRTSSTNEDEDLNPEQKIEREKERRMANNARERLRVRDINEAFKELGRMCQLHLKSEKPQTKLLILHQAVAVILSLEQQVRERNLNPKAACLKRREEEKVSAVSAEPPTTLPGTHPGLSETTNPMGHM
UniProt Q16665: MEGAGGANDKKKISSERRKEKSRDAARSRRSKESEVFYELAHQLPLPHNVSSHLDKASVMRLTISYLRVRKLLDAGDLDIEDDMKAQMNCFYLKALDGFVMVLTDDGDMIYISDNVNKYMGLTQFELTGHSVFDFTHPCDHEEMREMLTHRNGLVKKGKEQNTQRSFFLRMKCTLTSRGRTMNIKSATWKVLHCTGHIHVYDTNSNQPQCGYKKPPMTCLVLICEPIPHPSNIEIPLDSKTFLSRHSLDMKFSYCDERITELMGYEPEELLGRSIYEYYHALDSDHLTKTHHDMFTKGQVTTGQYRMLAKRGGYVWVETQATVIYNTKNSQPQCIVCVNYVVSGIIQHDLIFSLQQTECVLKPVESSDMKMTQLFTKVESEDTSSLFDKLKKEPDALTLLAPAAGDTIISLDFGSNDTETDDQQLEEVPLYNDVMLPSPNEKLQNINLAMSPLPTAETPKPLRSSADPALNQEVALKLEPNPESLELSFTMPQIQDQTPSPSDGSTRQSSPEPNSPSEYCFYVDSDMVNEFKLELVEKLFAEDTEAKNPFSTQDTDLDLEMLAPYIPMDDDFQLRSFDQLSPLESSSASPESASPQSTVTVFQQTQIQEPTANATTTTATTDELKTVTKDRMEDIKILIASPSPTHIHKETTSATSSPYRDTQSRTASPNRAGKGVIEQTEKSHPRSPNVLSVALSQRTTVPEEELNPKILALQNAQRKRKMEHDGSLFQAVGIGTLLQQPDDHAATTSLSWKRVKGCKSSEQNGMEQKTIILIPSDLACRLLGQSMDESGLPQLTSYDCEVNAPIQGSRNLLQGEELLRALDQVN

Target: Transcription factor 12 (TCF12) (human (endogenous in ECDHCC-1)) (UniProt Q99081)
Assay: co-IP; ECDHCC-1 cell lysate; antibody with protein A/G magnetic beads, rotated at 4 °C overnight; IgG group as control; washed three times with IP lysis buffer; Western blot detection

hypoxia-inducible factor 1-alpha (HIF-1α) (from UniProt Q16665 1-826)
binding: binds
